Experimental data reported in paper PMC12402336.
These are yes or no findings as the source states them, for the method shown. In cells and extracts the contact can be indirect. Some entries that bind do so weakly or less than the wild type.

By UniProt entry, the sequences of proteins in these tests, tags left out. Residues count along the entry.
UniProt Q9QUK6, residues 26-835: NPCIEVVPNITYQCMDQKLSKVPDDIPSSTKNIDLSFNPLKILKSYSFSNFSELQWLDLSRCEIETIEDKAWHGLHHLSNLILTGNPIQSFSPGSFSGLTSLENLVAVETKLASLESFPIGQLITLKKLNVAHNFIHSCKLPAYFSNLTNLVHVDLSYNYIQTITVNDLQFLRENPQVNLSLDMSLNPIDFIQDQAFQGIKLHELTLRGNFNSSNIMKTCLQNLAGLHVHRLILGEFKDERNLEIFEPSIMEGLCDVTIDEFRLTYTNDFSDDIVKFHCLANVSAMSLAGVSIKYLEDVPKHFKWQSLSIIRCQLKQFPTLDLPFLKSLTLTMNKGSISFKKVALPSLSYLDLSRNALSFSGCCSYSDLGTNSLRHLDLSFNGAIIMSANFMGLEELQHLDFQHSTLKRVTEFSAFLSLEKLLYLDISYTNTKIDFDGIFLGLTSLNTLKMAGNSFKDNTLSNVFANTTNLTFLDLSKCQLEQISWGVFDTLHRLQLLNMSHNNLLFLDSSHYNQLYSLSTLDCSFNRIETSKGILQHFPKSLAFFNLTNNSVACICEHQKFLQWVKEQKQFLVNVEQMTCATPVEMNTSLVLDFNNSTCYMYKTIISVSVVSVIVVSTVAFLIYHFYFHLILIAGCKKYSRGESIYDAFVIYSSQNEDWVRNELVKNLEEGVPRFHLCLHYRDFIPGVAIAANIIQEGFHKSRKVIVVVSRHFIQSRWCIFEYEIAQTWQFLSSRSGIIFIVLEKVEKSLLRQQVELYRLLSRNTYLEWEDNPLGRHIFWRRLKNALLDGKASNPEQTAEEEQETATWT

T1: ARHGEF3 (endogenous) (mouse (endogenous in iBMDM)) (UniProt Q91X46)
T1 sequence: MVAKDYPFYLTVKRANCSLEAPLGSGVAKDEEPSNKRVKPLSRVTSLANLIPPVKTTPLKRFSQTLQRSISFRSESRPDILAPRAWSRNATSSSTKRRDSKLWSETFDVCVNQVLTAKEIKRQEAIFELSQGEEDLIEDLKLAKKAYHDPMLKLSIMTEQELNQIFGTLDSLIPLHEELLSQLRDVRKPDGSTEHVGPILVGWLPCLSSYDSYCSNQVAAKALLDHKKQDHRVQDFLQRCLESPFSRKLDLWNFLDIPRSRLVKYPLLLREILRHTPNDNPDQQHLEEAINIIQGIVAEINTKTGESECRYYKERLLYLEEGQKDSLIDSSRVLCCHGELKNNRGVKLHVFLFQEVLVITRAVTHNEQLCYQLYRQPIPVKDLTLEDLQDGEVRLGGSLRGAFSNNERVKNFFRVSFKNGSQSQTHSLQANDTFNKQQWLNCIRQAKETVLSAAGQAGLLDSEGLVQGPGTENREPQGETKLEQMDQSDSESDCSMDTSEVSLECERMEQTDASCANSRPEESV

B1: ARHGEF3 (endogenous) (protein, UniProt Q91X46 1-524)
chain: T1 sequence

Experiments:
[1] = molecular target: T1, ARHGEF3 (endogenous) (mouse (endogenous in iBMDM)); test: co-IP; lysates of iBMDMs stably expressing TLR4-HA, LPS in the culture medium for 6 h; lysis buffer 50 mM Tris-HCl pH 8.0, 150 mM NaCl, 0.5% NP-40, 1 mM EDTA; overnight at 4 °C with Protein A/G PLUS-Agarose and ARHGEF3 antibody or HA antibody (reciprocal); western blot
[2] = molecular target: HA-tagged TLR4 (mTLR4-HA) (mouse) (UniProt Q9QUK6); test: as above

Molecule | binding [1] | binding [2]
HA-tagged TLR4 (mTLR4-HA) (from UniProt Q9QUK6 26-835) (receptor) | binds | 
B1 |  | binds
